Where a chain is given by its changes, count along the chain named. In names and notes the source's numbering stands. These are yes or no findings as the source states them, for the method shown. In cells and extracts the contact can be indirect. Some results given as binding are weak or reduced against the parent protein; the word gives no strength.
B1: hUBE2O H939A mutant (enzyme, UniProt Q9C0C9 1-1292)
chain: MADPAAPTPAAPAPAQAPAPAPEAVPAPAAAPVPAPAPASDSASGPSSDSGPEAGSQRLLFSHDLVSGRYRGSVHFGLVRLIHGEDSDSEGEEEGRGSSGCSEAGGAGHEEGRASPLRRGYVRVQWYPEGVKQHVKETKLKLEDRSVVPRDVVRHMRSTDSQCGTVIDVNIDCAVKLIGTNCIIYPVNSKDLQHIWPFMYGDYIAYDCWLGKVYDLKNQIILKLSNGARCSMNTEDGAKLYDVCPHVSDSGLFFDDSYGFYPGQVLIGPAKIFSSVQWLSGVKPVLSTKSKFRVVVEEVQVVELKVTWITKSFCPGGTDSVSPPPSVITQENLGRVKRLGCFDHAQRQLGERCLYVFPAKVEPAKIAWECPEKNCAQGEGSMAKKVKRLLKKQVVRIMSCSPDTQCSRDHSMEDPDKKGESKTKSEAESASPEETPDGSASPVEMQDEGAEEPHEAGEQLPPFLLKEGRDDRLHSAEQDADDEAADDTDDTSSVTSSASSTTSSQSGSGTSRKKSIPLSIKNLKRKHKRKKNKITRDFKPGDRVAVEVVTTMTSADVMWQDGSVECNIRSNDLFPVHHLDNNEFCPGDFVVDKRVQSCPDPAVYGVVQSGDHIGRTCMVKWFKLRPSGDDVELIGEEEDVSVYDIADHPDFRFRTTDIVIRIGNTEDGAPHKEDEPSVGQVARVDVSSKVEVVWADNSKTIILPQHLYNIESEIEESDYDSVEGSTSGASSDEWEDDSDSWETDNGLVEDEHPKIEEPPIPPLEQPVAPEDKGVVISEEAATAAVQGAVAMAAPMAGLMEKAGKDGPPKSFRELKEAIKILESLKNMTVEQLLTGSPTSPTVEPEKPTREKKFLDDIKKLQENLKKTLDNVAIVEEEKMEAVPDVERKEDKPEGQSPVKAEWPSETPVLCQQCGGKPGVTFTSAKGEVFSVLEFAPSNASFKKIEFQPPEAKKFFSTVRKEMALLATSLPEGIMVKTFEDRMDLFSALIKGPTRTPYEDGLYLFDIQLPNIYPAVPPHFCYLSQCSGRLNPNLYDNGKVCVSLLGTWIGKGTERWTSKSSLLQVLISIQGLILVNEPYYNEAGFDSDRGLQEGYENSRCYNEMALIRVVQSMTQLVRRPPEVFEQEIRQHFSTGGWRLVNRIESWLETHALLEKAQALPNGVPKASSSPEPPAVAELSDSGQQEPEDGGPAPGEASQGSDSEGGAQGLASASRDHTDQTSETAPDASVPPSVKPKKRRKSYRSFLPEKSGYPDIGFPLFPLSKGFIKSIRGVLTQFRAALLEAGMPECTEDK
B2: hUBE2O H1130A mutant (enzyme, UniProt Q9C0C9 1-1292)
chain: B1 chain with A939H, H1130A

Tests used:
[1] = biological target: hUBE2O H939A mutant (human) (UniProt Q9C0C9); assay: co-IP; lysates of transfected cells (0.5% NP40, 150 mM NaCl, 50 mM Tris pH 8.0, 1 mM EDTA, 10% glycerol), anti-Flag M2 affinity gel 90 min at 4 °C, 3 washes, immunoblotting
[2] = biological target: hUBE2O H1130A mutant (human) (UniProt Q9C0C9); assay: as above

Binder | binding [1] | binding [2]
B1 | binds | –
B2 | – | binds

From article PMC12835413, “Allosteric zinc inhibition and interdomain regulation govern the catalytic mechanism of the E3-independent ubiquitin-conjugating enzyme hUBE2O” (The Journal of Biological Chemistry, 2025)
